This is an account of results in article PMC4152224.

Chains of the proteins cited; added tags and fusions are not shown.
UniProt Q03135: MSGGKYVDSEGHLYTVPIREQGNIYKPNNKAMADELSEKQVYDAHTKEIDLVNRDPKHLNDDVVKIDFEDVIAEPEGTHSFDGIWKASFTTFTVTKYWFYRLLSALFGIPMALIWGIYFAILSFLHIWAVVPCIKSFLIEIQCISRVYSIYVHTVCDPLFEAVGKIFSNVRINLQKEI

No constants are given. Whether binding was seen depends on the method and setting. Binding seen in cells or lysates may run through a third protein. Some binding calls cover weakened binding; strength is not graded here.

Assay [1] has as its target T1, Vascular endothelial cadherin (human (endogenous in CRL-2922)) (UniProt P33151).
T1 sequence: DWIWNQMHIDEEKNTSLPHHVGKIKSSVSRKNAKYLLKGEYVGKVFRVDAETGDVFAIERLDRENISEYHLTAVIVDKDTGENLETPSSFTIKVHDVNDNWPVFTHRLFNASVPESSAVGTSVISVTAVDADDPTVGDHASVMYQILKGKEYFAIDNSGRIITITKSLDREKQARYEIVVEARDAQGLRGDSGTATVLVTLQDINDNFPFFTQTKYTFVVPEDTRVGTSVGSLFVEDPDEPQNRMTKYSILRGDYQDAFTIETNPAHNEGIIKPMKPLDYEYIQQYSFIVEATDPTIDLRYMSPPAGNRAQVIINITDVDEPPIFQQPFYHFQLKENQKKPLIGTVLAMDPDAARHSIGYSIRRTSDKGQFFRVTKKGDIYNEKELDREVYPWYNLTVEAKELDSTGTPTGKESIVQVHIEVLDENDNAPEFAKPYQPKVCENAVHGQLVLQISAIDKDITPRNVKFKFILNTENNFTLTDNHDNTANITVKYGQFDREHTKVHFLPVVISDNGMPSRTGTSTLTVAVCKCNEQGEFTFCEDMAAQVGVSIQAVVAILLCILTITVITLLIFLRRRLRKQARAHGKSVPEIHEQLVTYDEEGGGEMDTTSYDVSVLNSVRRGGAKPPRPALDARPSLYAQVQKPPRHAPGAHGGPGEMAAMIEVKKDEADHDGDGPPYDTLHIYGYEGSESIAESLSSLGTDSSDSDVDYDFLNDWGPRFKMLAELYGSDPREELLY
The assay is described as follows: co-IP; total protein of normal control CRL-2922 cells (no LPS); primary antibody overnight at 4°C, protein G-agarose 24 h, washed 4 times with radioimmunoprecipitation assay buffer, SDS-PAGE and blot.

Assay [2] concerns the target T1, Vascular endothelial cadherin (human (endogenous in CRL-2922)). The assay is described as follows: co-IP; total protein of CRL-2922 cells after LPS (10 µg/mL, 1 h to 4 h), with or without CPZ, clathrin siRNA, filipin, Cav-1 siRNA, SU6656, CLI-095, Cyt D or Jasp; primary antibody overnight at 4°C, protein G-agarose 24 h, washed 4 times with radioimmunoprecipitation assay buffer, SDS-PAGE and blot, densitometry ratio.

Turning to Caveolin-1 (from UniProt Q03135 1-178), the binding entry is “binds weakly” in assay [1] and “binds” in assay [2].

In the case of “Phospho-caveolin-1 (Tyr14) (from UniProt Q03135 1-178)”, the binding entry in assay [2] is “binds”.
